Measurements from paper doi:10.1101/2021.03.18.436074.
Where two headings read alike, the source gives them in different places. These are yes or no findings as the source states them, for the method shown. In cells and extracts the contact can be indirect. Some binding calls cover weakened binding; strength is not graded here.

Legend:
[1] = target: T1, CLAMP (Chromatin linked adapter for MSL proteins) (Drosophila melanogaster (endogenous in S2 and Kc cells)) (UniProt Q9V9N4); assay: co-IP
T1 sequence: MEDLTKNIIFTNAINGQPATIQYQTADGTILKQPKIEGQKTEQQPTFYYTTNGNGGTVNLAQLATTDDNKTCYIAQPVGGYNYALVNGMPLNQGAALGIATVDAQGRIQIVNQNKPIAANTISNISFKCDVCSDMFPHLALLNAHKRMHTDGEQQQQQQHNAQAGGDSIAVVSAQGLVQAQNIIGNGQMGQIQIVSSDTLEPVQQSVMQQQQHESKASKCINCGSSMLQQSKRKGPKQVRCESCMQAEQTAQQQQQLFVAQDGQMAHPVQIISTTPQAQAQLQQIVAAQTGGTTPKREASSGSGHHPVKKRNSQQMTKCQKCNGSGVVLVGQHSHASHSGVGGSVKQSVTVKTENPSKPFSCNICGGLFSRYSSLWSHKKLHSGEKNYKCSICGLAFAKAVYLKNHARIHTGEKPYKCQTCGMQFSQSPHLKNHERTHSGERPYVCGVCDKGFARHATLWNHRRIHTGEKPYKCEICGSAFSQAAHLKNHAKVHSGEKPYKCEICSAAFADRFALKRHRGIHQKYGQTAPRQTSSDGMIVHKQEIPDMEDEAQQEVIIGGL

[2] = target: T1, CLAMP (Chromatin linked adapter for MSL proteins) (Drosophila melanogaster (endogenous in S2 and Kc cells)); assay: co-IP; remark: listed apart in the source

B1: Hrb27C (protein, UniProt P48809 1-421)
chain: MEEDERGKLFVGGLSWETTQENLSRYFCRFGDIIDCVVMKNNESGRSRGFGFVTFADPTNVNHVLQNGPHTLDGRTIDPKPCNPRTLQKPKKGGGYKVFLGGLPSNVTETDLRTFFNRYGKVTEVVIMYDQEKKKSRGFGFLSFEEESSVEHVTNERYINLNGKQVEIKKAEPRDGSGGQNSNNSTVGGAYGKLGNECSHWGPHHAPINMMQGQNGQMGGPPLNMPIGAPNMMPGYQGWGTSPQQQQYGYGNSGPGSYQGWGAPPGPQGPPPQWSNYAGPQQTQGYGGYDMYNSTSTGAPSGPSGGGSWNSWNMPPNSAGPTGAPGAGAGTATDMYSRAQAWATGGPSTTGPVGGMPRTGPGNSASKSGSEYDYGGYGSGYDYDYSNYVKQEGASNYGAGPRSAYGNDSSTQPPYATSQAV
For B1, the binding [1] was “binds” and the binding [2] was “binds”.

B2: Squid (protein, UniProt Q08473 1-344)
chain: MAENKQVDTEINGEDFTKDVTADGPGSENGDAGAAGSTNGSSDNQSAASGQRDDDRKLFVGGLSWETTEKELRDHFGKYGEIESINVKTDPQTGRSRGFAFIVFTNTEAIDKVSAADEHIINSKKVDPKKAKARHGKIFVGGLTTEISDEEIKTYFGQFGNIVEVEMPFDKQKSQRKGFCFITFDSEQVVTDLLKTPKQKIAGKEVDVKRATPKPENQMMGGMRGGPRGGMRGGRGGYGGRGGYNNQWDGQGSYGGYGGGYGGYGAGGYGDYYAGGYYNGYDYGYDGYGYGGGFEGNGYGGGGGGNMGGGRGGPRGGGGPKGGGGFNGGKQRGGGGRQQRHQPY
For B2, the binding [2] was “binds”.
